Experimental data reported in paper PMC3387016.
These are yes or no findings as the source states them, for the method shown. In cells and extracts the contact can be indirect. Some results given as binding are weak or reduced against the parent protein; the word gives no strength.

Amino acid sequences for entries named in this document (tags omitted). A change or cut given only in a name is not applied to a line headed by its entry.
UniProt P13569: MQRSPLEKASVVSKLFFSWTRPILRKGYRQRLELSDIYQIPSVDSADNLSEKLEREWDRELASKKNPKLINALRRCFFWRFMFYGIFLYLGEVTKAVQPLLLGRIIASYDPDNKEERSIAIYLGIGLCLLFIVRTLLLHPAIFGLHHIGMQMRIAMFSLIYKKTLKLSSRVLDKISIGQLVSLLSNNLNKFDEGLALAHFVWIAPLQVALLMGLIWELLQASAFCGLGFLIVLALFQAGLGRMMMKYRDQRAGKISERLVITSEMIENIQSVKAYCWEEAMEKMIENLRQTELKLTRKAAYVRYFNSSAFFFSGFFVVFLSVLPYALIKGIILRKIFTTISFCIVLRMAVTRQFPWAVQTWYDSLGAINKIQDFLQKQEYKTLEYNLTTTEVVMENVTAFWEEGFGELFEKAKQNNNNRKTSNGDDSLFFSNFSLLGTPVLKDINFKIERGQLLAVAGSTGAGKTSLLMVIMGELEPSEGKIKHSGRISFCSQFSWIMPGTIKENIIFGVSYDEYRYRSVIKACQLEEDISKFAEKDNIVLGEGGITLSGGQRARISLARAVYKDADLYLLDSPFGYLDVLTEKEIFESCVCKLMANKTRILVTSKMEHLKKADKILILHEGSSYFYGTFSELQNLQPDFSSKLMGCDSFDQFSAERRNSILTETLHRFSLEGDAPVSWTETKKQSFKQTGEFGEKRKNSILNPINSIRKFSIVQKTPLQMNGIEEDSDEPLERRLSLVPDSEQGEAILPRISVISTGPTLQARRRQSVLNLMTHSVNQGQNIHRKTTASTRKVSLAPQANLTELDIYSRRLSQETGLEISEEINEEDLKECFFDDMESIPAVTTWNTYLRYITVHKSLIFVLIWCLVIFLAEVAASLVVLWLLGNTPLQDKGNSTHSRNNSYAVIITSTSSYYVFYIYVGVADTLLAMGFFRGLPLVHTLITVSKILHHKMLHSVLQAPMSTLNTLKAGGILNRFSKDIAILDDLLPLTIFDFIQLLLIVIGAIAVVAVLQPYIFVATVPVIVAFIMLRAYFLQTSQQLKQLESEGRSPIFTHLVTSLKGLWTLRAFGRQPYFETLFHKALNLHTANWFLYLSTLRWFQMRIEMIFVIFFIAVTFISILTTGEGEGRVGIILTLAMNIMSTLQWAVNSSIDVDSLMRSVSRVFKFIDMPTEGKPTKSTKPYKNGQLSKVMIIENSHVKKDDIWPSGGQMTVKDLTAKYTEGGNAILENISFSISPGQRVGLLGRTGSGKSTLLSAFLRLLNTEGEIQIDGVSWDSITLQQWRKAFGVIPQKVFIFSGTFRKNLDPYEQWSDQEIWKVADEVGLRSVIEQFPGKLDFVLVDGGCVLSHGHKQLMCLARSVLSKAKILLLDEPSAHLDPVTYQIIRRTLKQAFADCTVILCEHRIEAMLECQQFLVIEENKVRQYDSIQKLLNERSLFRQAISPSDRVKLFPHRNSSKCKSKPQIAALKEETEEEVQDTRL

Legend:
[1] = biological target: G551D-CFTR (Gly to Asp at position 551) (human) (UniProt P13569); experiment: co-IP; anti-CFTR antibody M3A7 on Protein G magnetic beads, 500 µg whole cell lysate of Wt-CFTR or G551D-CFTR HeLa cells in RIPA buffer, 4°C overnight; calumenin detected by western blot and quantified
[2] = biological target: human wild type CFTR (cystic fibrosis transmembrane conductance regulator) (human) (UniProt P13569); experiment: as above

B1: Calumenin (protein, UniProt O43852 20-315)
chain: KPTEKKDRVHHEPQLSDKVHNDAQSFDYDHDAFLGAEEAKTFDQLTPEESKERLGKIVSKIDGDKDGFVTVDELKDWIKFAQKRWIYEDVERQWKGHDLNEDGLVSWEEYKNATYGYVLDDPDPDDGFNYKQMMVRDERRFKMADKDGDLIATKEEFTAFLHPEEYDYMKDIVVQETMEDIDKNADGFIDLEEYIGDMYSHDGNTDEPEWVKTEREQFVEFRDKNRDGKMDKEETKDWILPSDYDHAEAEARHLVYESDQNKDGKLTKEEIVDKYDLFVGSQATDFGEALVRHDEF
With B1 the binding [1] was “binds” and the binding [2] was “binds”.
